From PMC13434705
No constants are given. Whether binding was seen depends on the method and setting. Binding seen in cells or lysates may run through a third protein. Some results given as binding are weak or reduced against the parent protein; the word gives no strength.

Protein sequences, listed by entry. Tags and fused reporters are not part of them. Lines headed by an entry give the natural chain unless they say otherwise; changes in a name come on top.
UniProt P09874: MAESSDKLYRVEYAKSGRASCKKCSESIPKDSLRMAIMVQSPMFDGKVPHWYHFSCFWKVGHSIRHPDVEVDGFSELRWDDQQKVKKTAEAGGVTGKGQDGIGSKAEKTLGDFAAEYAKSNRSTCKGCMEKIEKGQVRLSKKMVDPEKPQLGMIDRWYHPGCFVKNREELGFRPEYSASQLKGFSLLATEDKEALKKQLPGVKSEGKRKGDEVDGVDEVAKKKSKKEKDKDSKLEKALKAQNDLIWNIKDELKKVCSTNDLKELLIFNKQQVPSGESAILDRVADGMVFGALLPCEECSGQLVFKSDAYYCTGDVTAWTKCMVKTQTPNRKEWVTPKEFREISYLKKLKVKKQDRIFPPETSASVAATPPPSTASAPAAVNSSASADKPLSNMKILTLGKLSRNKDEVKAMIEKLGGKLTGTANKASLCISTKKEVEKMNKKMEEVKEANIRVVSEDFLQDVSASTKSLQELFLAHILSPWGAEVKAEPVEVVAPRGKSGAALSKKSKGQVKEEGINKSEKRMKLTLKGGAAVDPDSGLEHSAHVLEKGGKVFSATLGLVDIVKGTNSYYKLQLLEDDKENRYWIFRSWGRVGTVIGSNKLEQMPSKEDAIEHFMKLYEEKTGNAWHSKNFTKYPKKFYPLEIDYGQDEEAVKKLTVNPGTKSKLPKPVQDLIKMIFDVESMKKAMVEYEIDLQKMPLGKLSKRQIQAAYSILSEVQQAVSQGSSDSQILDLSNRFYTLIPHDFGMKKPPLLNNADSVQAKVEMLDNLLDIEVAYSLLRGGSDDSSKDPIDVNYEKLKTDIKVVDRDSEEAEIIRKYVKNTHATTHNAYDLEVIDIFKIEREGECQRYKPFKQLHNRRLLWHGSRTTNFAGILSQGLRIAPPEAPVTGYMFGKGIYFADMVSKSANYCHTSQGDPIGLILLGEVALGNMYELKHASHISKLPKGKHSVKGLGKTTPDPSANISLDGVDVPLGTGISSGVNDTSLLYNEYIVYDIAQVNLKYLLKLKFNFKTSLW
UniProt P19474: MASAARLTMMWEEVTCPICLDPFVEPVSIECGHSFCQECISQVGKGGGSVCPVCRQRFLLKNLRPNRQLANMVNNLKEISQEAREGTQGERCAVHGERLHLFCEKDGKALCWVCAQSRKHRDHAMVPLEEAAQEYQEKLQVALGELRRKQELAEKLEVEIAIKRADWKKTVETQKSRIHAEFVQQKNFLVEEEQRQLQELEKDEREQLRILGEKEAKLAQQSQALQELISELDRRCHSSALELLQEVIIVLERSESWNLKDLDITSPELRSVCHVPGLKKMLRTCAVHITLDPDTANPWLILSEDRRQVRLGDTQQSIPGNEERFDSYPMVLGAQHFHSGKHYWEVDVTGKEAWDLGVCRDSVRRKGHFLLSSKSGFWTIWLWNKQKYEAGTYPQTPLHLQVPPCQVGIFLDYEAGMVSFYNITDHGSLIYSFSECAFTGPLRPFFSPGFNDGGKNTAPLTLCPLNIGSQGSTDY

Columns and labels:
[1] = target: Flag-PARP1 (pCMV-PARP1-3x Flag-WT) (human) (UniProt P09874); assay: co-IP; Supplementary Fig. 1e; PARP1 ΔH3ID and K654R tested for binding to TRIM21; legend not shown
[2] = target: Flag-PARP1 K654R (pCMV-PARP1 K654R) (human) (UniProt P09874); assay: as above
[3] = target: Flag-PARP1 (pCMV-PARP1-3x Flag-WT) (human) (UniProt P09874); assay: co-IP; Flag-PARP1 and EGFP-TRIM21 transfected into DMS273, SHP77 and HEK293T cells; precipitation with an anti-Flag antibody
[4] = target: EGFP-TRIM21 (pcDNA3.1-EGFP-TRIM21, wild type) (human) (UniProt P19474); assay: co-IP; full-length and truncated EGFP-TRIM21 transfected into HEK293T cells, 48 h, EGFP-trap, immunoblot for PARP1
[5] = target: Poly(ADP-ribose) polymerase 1 (PARP1), endogenous (human (endogenous in DMS273, SHP77, HEK293T)) (UniProt P09874); assay: proximity ligation; Duolink in situ PLA with antibodies against PARP1 and TRIM21 in fixed DMS273 and SHP77 cells
[6] = target: Poly(ADP-ribose) polymerase 1 (PARP1), endogenous (human (endogenous in DMS273, SHP77, HEK293T)) (UniProt P09874); assay: co-IP; endogenous proteins in DMS273, SHP77 and HEK293T lysates; lysis buffer 20 mM Tris-HCl pH 7.5, 150 mM NaCl, 1% Triton X-100, 1 mM EDTA; protein A/G magnetic beads

Substance: EGFP-TRIM21 (pcDNA3.1-EGFP-TRIM21, wild type) (from UniProt P19474 1-475)
- binding [1]: binds
- binding [2]: binds
- binding [3]: binds

Substance: Poly(ADP-ribose) polymerase 1 (PARP1), endogenous (from UniProt P09874 1-1014)
- binding [4]: binds

Substance: tripartite motif-containing 21 (TRIM21), endogenous (from UniProt P19474 1-475)
- binding [5]: binds
- binding [6]: binds
